Reference: PubChem BioAssay AID493014 (National Center for Advancing Translational Sciences (NCATS), 2011)
The other results are listed elsewhere or left out. Shown are side measurements of this screen, not its main read-out; they come without a call. Compounds called inactive in the main read-out are mostly missing here. Words in brackets tell the shape of the fitted curve; partial curves, single points and poor fits give uncertain potencies.

assay: qHTS Assay to Find Inhibitors of Chronic Active B-Cell Receptor Signaling; conditions: ABC-DLBCL IkBa-CBG/CBR reporter, luminescence ratio (green luciferase fused to IkBa over red control in TMD8 lymphoma cells), 4 h; measured here: CBR red luminescence, cell number
Outline: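 TMD8 ABC-DLBCL cells carrying doxycycline-inducible green luciferase fused to IkappaBalpha plus unfused red luciferase were exposed to compounds (up to 46 uM) for 4 hrs at 37C. Activity came from the overlap-corrected green/red luminescence ratio.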

SMILES | AC50
Cc1ccc(NC(=O)C(=O)NC(C)C2COc3ccccc3O2)cc1 (stereo unspecified) | 1.41 µM [falling, full curve]
COC(=O)c1sccc1NC(=O)Cc1ccc(OC)cc1 | 0.326 µM [falling, full curve]
Cc1ccc(S(=O)(=O)N2CCCCC2)cc1NC(=O)CNc1ccc(C(F)(F)F)cc1 | 8.2 µM [falling, partial curve]
COc1cccc(-c2ncc3ccccc3c2COC(=O)c2ccc(Br)cc2)c1 | 9.2 µM [falling, partial curve, poor fit]
COc1ccc2nc(NC(=O)CSc3cn[nH]n3)sc2c1 | 11.2 µM [falling, partial curve]
CN(CCc1nc2ccc(Cl)cc2[nH]1)Cc1nc(CC2CC2)no1 | 0.562 µM [rising, partial curve, poor fit]
O=C1NC(=O)c2cc(NC(=O)c3cccc4ccccc34)ccc21 | 0.316 µM [falling, full curve]
CCc1nnc(N/N=C/c2cccs2)n1N | 29.1 µM [falling, single point]
Cc1ccc(S(=O)(=O)Nc2ccccc2CNc2c(C)n(C)n(-c3ccccc3)c2=O)cc1 | 20 µM [rising, partial curve, poor fit]
COc1ccc(C)cc1NC(=O)c1ccc2c(c1)OCO2 | 16.4 µM [rising, partial curve]
c1ccc(CSCCc2ccncc2)cc1 | 9.2 µM [rising, partial curve]
N#Cc1cc2c(nc1SCc1ccccc1)CCCC2=O | 20.6 µM [falling, partial curve, poor fit]
CC(=O)OCC(=O)[C@@]1(O)[C@H](C)C[C@H]2[C@@H]3CCC4=CC(=O)C=C[C@]4(C)[C@@]3(F)[C@@H](O)C[C@@]21C | 14.6 µM [rising, partial curve, poor fit]
COc1cc(C(=O)Nc2ccccc2N2CCN(S(C)(=O)=O)CC2)cc(OC)c1OC | 7.08 µM [rising, partial curve, poor fit]
COC(=O)c1cccc(Cn2nc(C)c([N+](=O)[O-])c2C)c1 | 35.5 µM [rising, single point]
O=c1c2ccccc2nc(-c2ccccc2)n1CCCN1CCOCC1 | 4.11 µM [falling, partial curve, poor fit]
NC(=O)c1cc(NC(=O)CCc2nc3ccccc3s2)cc(C(N)=O)c1 | 11.2 µM [falling, single point]
CCOC(=O)c1ccc(S(=O)(=O)N2CCN(CC(=O)NC(=O)NC(C)(C)C)CC2)cc1 | 0.366 µM [rising, partial curve, poor fit]
Cc1ccc(CNC(=O)CSCc2ccccc2C)cc1 | 0.794 µM [rising, full curve, poor fit]
Cc1ccc(NC(=O)c2ccc(NCCN)c([N+](=O)[O-])c2)cc1 | 18.4 µM [falling, partial curve]
CC(C)=CCC/C(C)=C/CNC(=O)C[C@H]1C[C@H](C(=O)N2CCOCC2)[C@@]2(C)c3[nH]c4cc(-c5ccco5)ccc4c3CCN2C1=O | 20.6 µM [falling, partial curve, poor fit]

Sorted by length of the SMILES (ascending): part of the list above
SMILES | AC50
COc1ccc2nc(NC(=O)CSc3cn[nH]n3)sc2c1 | 11.2 µM [falling, partial curve]
O=C1NC(=O)c2cc(NC(=O)c3cccc4ccccc34)ccc21 | 0.316 µM [falling, full curve]
COc1cc(C(=O)Nc2ccccc2N2CCN(S(C)(=O)=O)CC2)cc(OC)c1OC | 7.08 µM [rising, partial curve, poor fit]

Next part

SMILES | AC50
Cc1cc(C)c2c(c1)C1C=CCC1C(c1ccc(S(=O)(=O)N3CCOCC3)cc1)N2 (stereo unspecified) | 22.4 µM [falling, single point]
CCOC(=O)C1CCN(C(=O)/C=C/c2cc(OC)c(OC)c(OC)c2)CC1 | 16.4 µM [rising, partial curve]
Cc1ccsc1C(=O)OCC(=O)Nc1cccc(F)c1 | 14.6 µM [rising, partial curve, poor fit]
COc1ccc(N2C(N)=C(C#N)C(c3cccnc3)C3=C2CC(C)(C)CC3=O)cc1 (stereo unspecified) | 0.82 µM [rising, full curve, poor fit]
Cc1nc2cc(NC(=O)NCCC3=CCCCC3)ccc2o1 | 10.3 µM [rising, partial curve, poor fit]
COc1ccccc1NC(=O)CSc1nc2n[nH]c(C)c2c(=N)n1-c1ccccc1Cl | 29.1 µM [falling, single point]
CCOc1ccc2c(c1)C(c1ccccc1)=NNC(c1ccccc1)=N2 | 9.2 µM [falling, partial curve]
O=C(NCCc1ccccc1)c1ccc([N+](=O)[O-])cc1 | 35.5 µM [falling, single point]
COc1cccc(/C=N/NC(=S)Nc2cccc(C(=O)O)c2)c1O | 4.47 µM [falling, full curve]
CN(c1ccccc1)S(=O)(=O)c1cccc(NC(=O)c2cncc(Br)c2)c1 | 35.5 µM [falling, single point]
CN1CCN(C(=O)c2ccc3c(Cl)c4c(nc3c2)CCCC4)CC1 | 7.08 µM [falling, partial curve]
COc1cccc(C(=O)NCc2ccc(-c3nc4ccccc4s3)cc2)c1 | 29.1 µM [rising, single point]
COc1ccccc1-n1c(CNC(=O)c2cccc([N+](=O)[O-])c2C)n[nH]c1=S | 1.41 µM [falling, full curve]
COc1cccc2cc(C(=O)NCc3ccc(C)cc3)c(=O)oc12 | 12.6 µM [falling, partial curve]
CCc1ccc(NC(=O)C2C3/C=C\CCCCC32)cc1 (stereo unspecified) | 0.82 µM [rising, full curve, poor fit]
O=C(CC1N=C2c3ccccc3N=C(SCc3ccccc3F)N2C1=O)NCCc1ccccc1 (stereo unspecified) | 35.5 µM [falling, single point]
O=C(CSc1nc2ncc(Br)cc2[nH]1)Nc1ccccc1-c1ccccc1 | 11.2 µM [falling, partial curve, poor fit]
O=C(CCN1CCCCC1)c1ccccc1 | 20.6 µM [rising, single point]
CCC(CC)c1nnc(NC(=O)C2COc3ccccc3O2)s1 (stereo unspecified) | 3.55 µM [rising, partial curve, poor fit]
Clc1ccc(NCc2nnc3n2CCCCC3)cc1 | 6.51 µM [rising, single point]
